Here are results for three sequences from PMC3585288.

The chains behind the UniProt entries cited, without tags or fusion partners. Residues count along the entry.
UniProt P02769, 25-607: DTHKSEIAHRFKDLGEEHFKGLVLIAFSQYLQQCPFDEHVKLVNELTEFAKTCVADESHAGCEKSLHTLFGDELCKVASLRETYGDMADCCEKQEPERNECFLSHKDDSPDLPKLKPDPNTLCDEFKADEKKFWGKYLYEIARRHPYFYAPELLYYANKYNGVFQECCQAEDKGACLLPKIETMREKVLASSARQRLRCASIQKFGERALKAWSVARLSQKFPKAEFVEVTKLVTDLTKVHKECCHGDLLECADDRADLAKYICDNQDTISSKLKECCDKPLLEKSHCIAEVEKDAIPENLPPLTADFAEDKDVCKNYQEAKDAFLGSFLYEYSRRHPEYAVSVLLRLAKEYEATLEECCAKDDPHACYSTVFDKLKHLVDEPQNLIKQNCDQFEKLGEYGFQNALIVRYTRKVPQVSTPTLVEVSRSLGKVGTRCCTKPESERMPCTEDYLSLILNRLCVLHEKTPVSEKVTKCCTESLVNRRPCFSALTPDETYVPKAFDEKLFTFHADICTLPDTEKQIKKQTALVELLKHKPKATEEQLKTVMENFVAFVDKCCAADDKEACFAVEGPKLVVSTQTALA

For part of these data: A negative result means that nothing was seen under these conditions. For part of these data: The exact form of at least one protein or probe is not confirmed. For part of these data: Protein sequences can lack the tags named with them.

Data set [1] addresses bovine serum albumin (Bos taurus) (UniProt P02769). Nature of the data set: SPR. As to conditions: negative control, 6.0 uM; SPR: 50 mM NaH2PO4, 150 mM NaCl, 0.005% P20, pH 7.0, 25 C; commercial protein; label: 5'-biotin on one strand (S1).
Data set [2] addresses T1, Alba1 (Ape10b1) (Aeropyrum pernix) (UniProt Q9YAW1).
T1 sequence (looked up): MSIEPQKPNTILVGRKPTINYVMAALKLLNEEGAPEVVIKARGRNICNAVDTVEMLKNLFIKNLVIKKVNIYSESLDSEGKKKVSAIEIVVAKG
Nature of the data set: ITC. The note with it: 25 C, ITC: 50 mM NaH2PO4, pH 7.0, 25 C, recombinant protein, residues 1-94.

On to “CCCCCCCGTGAAAGCCTAGACAGCGAGGCCCCCCC (double strand) [SPRspecAP]”, for which, in data set [1], the binding result is listed as “no binding”.

In the case of “CCCGGGCCCGGGCCCGGGCCCGGGCCCGGGCCCGGGCCCGGGCCCGGG (double strand) [A-DNA]”, the Ka in data set [2] (pH 7.0, n=0.15 per bp) was 2.4 10^6 M-1. “ACGTACGTACGTACGTACGTACGTACGTACGTACGTACGTACGTACGT (double strand) [B-DNA]”: the Ka in data set [2] (pH 7.0, n=0.11 per bp) is 0.8 10^6 M-1.
